# ± gives the standard deviation of the averaged measurements. This is a selection; strong and weak results do not stand in their true shares.
# What was measured:
# Test in all cases: NP40-soluble protein abundance relative to vehicle (solubility fold change) (ratio); higher = more soluble protein in presence of ATP
# RPS19BP1 = biological target: T1, RPS19BP1 (UniProt Q86WX3)
# T1 sequence (whole entry): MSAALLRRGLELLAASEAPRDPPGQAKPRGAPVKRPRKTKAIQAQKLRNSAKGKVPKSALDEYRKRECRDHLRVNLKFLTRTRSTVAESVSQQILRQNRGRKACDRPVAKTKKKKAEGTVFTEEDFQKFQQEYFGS
# Procedure, shortened: (§1)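 In three independent experiments, Jurkat crude lysate made by Dounce homogenisation was treated for 10 min at room temperature and then 3 min at 37 °C with eight concentrations ranging from 0.1 to 10 mM. It was then solubilised with 0.8% NP40 plus benzonase for 60 min at 4 °C and ultracentrifuged. The supernatant was TMT-labelled for LC-MS/MS, and each value is the fold change against the detergent-processed vehicle for the same replicate, using vsn-normalised intensities.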
# SLFN11 = biological target: T2, SLFN11 (UniProt Q7Z7L1)
# T2 sequence (whole entry): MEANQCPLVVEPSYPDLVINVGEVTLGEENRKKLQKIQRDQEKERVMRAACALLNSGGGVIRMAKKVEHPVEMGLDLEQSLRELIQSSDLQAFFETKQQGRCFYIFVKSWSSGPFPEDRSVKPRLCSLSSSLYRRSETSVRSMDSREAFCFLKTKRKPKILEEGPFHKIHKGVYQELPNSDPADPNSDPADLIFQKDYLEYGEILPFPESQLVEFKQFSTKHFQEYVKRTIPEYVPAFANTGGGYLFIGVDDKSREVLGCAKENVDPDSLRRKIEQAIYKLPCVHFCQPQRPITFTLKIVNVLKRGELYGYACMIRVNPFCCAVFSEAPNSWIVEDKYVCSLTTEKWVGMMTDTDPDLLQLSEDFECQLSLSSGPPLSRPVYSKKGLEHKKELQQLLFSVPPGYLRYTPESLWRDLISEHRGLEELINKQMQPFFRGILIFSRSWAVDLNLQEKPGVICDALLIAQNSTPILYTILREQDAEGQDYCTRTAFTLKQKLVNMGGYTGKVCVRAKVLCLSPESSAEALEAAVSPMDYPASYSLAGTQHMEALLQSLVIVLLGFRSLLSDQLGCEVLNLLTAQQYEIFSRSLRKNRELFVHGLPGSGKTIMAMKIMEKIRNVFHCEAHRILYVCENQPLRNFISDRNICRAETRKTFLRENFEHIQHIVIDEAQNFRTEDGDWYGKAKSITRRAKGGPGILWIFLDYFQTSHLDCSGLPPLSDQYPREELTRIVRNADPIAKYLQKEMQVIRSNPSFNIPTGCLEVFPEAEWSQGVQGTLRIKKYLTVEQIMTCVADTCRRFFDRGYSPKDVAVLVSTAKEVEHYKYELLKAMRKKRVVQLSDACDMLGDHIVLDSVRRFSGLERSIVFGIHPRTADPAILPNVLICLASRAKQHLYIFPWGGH
# Procedure, shortened: as §1
# SPATS2 = biological target: T3, SPATS2 (UniProt Q86XZ4)
# T3 sequence (whole entry): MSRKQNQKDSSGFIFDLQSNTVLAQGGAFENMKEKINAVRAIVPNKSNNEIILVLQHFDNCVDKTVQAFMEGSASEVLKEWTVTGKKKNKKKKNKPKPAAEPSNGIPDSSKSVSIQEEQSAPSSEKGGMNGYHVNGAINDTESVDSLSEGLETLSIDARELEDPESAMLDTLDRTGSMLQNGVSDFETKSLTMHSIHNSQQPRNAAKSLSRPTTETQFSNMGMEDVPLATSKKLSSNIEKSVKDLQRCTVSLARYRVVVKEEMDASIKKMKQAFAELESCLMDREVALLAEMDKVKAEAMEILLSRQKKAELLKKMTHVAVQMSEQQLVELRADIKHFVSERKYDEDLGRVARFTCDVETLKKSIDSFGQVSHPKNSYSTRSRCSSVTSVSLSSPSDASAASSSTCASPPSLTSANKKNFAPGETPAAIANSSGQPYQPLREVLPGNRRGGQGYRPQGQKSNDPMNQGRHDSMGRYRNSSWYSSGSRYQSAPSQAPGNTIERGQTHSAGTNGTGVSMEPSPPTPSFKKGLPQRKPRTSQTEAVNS
# Procedure, shortened: as §1
# STX12 = biological target: T4, STX12 (UniProt Q86Y82)
# T4 sequence (whole entry): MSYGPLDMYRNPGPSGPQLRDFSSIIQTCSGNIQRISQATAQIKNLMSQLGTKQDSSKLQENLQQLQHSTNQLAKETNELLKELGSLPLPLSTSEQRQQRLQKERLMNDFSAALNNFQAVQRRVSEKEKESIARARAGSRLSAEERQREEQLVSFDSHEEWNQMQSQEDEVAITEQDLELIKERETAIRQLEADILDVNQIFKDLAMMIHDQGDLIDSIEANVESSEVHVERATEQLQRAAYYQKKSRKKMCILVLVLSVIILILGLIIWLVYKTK
# Procedure, shortened: as §1
# TBC1D10C = biological target: T5, TBC1D10C (UniProt Q8IV04)
# T5 sequence (whole entry): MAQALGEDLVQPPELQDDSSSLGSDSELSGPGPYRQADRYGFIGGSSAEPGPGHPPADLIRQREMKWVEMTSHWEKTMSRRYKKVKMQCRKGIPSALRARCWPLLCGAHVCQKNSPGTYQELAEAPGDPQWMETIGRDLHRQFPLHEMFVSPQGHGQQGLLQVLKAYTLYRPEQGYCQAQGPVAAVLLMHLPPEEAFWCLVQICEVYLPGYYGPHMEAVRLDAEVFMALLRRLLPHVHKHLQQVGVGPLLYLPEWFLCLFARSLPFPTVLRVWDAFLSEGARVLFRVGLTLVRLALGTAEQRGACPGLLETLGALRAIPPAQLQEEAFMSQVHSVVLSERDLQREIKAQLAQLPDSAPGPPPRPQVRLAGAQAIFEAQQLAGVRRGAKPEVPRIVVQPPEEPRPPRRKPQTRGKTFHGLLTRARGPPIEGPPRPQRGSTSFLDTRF
# Procedure, shortened: as §1
smiles,measurement,setting,value
Nc1ncnc2c1ncn2[C@@H]1O[C@H](COP(=O)(O)OP(=O)(O)OP(=O)(O)O)[C@@H](O)[C@H]1O [adenosine triphosphate],NP40-soluble protein abundance,RPS19BP1; concentration: 1mM,1.15 ± 0.033
same,NP40-soluble protein abundance,RPS19BP1; concentration: 2mM,1.11 ± 0.12
same,NP40-soluble protein abundance,RPS19BP1; concentration: 4mM,1.12 ± 0.14
same,NP40-soluble protein abundance,RPS19BP1; concentration: 6mM,1.3 ± 0.081
same,NP40-soluble protein abundance,RPS19BP1; concentration: 8mM,1.28 ± 0.11
same,NP40-soluble protein abundance,RPS19BP1; concentration: 10mM,1.42 ± 0.04
same,NP40-soluble protein abundance,SLFN11; concentration: 1mM,1.05 ± 0.11
same,NP40-soluble protein abundance,SLFN11; concentration: 2mM,1.04 ± 0.014
same,NP40-soluble protein abundance,SLFN11; concentration: 4mM,1.08 ± 0.064
same,NP40-soluble protein abundance,SLFN11; concentration: 6mM,1 ± 0.072
same,NP40-soluble protein abundance,SLFN11; concentration: 8mM,1.137 ± 0.0079
same,NP40-soluble protein abundance,SLFN11; concentration: 10mM,1.12 ± 0.071
same,NP40-soluble protein abundance,SPATS2; concentration: 1mM,1.09 ± 0.097
same,NP40-soluble protein abundance,SPATS2; concentration: 2mM,1.2 ± 0.1
same,NP40-soluble protein abundance,SPATS2; concentration: 4mM,1.2627 ± 0.0011
same,NP40-soluble protein abundance,SPATS2; concentration: 6mM,1.34 ± 0.025
same,NP40-soluble protein abundance,SPATS2; concentration: 8mM,1.24 ± 0.027
same,NP40-soluble protein abundance,SPATS2; concentration: 10mM,1.3 ± 0.071
same,NP40-soluble protein abundance,STX12; concentration: 1mM,0.984 ± 0.056
same,NP40-soluble protein abundance,STX12; concentration: 2mM,0.97 ± 0.018
same,NP40-soluble protein abundance,STX12; concentration: 4mM,0.973 ± 0.028
same,NP40-soluble protein abundance,STX12; concentration: 6mM,1.03 ± 0.044
same,NP40-soluble protein abundance,STX12; concentration: 8mM,0.971 ± 0.047
same,NP40-soluble protein abundance,STX12; concentration: 10mM,0.912 ± 0.086
same,NP40-soluble protein abundance,TBC1D10C; concentration: 1mM,1.09 ± 0.2
same,NP40-soluble protein abundance,TBC1D10C; concentration: 2mM,0.969 ± 0.19
same,NP40-soluble protein abundance,TBC1D10C; concentration: 4mM,0.734 ± 0.12
same,NP40-soluble protein abundance,TBC1D10C; concentration: 6mM,0.971 ± 0.19
same,NP40-soluble protein abundance,TBC1D10C; concentration: 8mM,1.04 ± 0.15
same,NP40-soluble protein abundance,TBC1D10C; concentration: 10mM,1.08 ± 0.14

# An excerpt of these results, tab-delimited.
smiles	measurement	setting	value
Nc1ncnc2c1ncn2[C@@H]1O[C@H](COP(=O)(O)OP(=O)(O)OP(=O)(O)O)[C@@H](O)[C@H]1O [adenosine triphosphate]	NP40-soluble protein abundance	TBC1D10C; concentration: 8mM	1.04 ± 0.15
same	NP40-soluble protein abundance	TBC1D10C; concentration: 10mM	1.08 ± 0.14

# — the supplement of paper PMC6411743
